Laboratory results as given in patent EP1412028B1, “TETRAHYDROINDOLONE DERIVATIVES LINKED TO ARYLPIPERAZINES” (Spectrum Pharmaceuticals, Inc., priority 2001, dated 2003).

Test system: Caco-2 cells
Conditions: human

CC(C)NCC(O)COc1ccc(CC(N)=O)cc1 (stereo not shown) [Atenolol, reference compound]
Papp AP- to- BL: 1.3±0.2 cm/s x 10^6
